{
  "sequences": {"note": "The chains behind the UniProt entries cited, without tags or fusion partners. Where a name states a change or a piece, a line headed by the entry shows the natural chain unless it says otherwise.", "UniProt P18054": "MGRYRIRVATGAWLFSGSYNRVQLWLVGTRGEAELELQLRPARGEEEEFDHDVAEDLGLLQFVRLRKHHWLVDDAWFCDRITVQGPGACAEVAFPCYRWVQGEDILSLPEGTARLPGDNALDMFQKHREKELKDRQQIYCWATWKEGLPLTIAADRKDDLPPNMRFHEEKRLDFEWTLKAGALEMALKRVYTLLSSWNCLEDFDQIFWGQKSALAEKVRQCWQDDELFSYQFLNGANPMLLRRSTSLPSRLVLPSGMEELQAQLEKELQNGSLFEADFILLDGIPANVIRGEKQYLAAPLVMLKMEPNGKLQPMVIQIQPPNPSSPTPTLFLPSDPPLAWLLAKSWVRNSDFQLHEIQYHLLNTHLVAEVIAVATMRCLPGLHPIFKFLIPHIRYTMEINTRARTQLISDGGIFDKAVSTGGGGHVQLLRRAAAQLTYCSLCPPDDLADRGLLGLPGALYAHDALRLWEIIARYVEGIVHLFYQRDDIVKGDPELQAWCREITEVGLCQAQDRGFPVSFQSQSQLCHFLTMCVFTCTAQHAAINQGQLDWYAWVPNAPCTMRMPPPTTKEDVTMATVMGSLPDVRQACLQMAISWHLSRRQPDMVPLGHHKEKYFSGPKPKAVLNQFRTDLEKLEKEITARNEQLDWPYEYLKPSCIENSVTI"},
  "source": "PubChem BioAssay AID1671190",
  "about": "(National Center for Advancing Translational Sciences (NCATS), 2021)",
  "note": "Hit rate of the full screen: of about 580,000 compounds, about 6,100 (1.1%) were called active. Inconclusive means that the source gave no clear call. Such entries were picked first, then a sample of the others. Calls follow the shape of the dose curve; as a rule, active = well fitted inhibition curve with a large enough effect; inconclusive = small, poorly fitted or top-dose-only effect, or another doubt; inactive = no such curve, though single readings can be large or run the other way. Potencies of inconclusive entries are doubtful fits and often do not repeat. % is scaled to controls: 0 for no effect and ±100 for the full control effect; potency is read from the fitted curve at half-maximal effect.",
  "data": [
    {"molecular_target": "Polyunsaturated fatty acid lipoxygenase ALOX12 (Homo sapiens) (UniProt P18054)", "test": "Primary qHTS assay for inhibitors of human arachidonate 12S-lipoxygenase (ALOX12): Round 2", "conditions": "purified 12hLO, xylenol orange hydroperoxide absorbance; activity change, negative = inhibition: at 108 µM (top of the series) unless noted", "in_short": "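Hydroperoxide product was detected by ferrous iron/xylenol orange as the 573 to 405 nm absorbance ratio. Arachidonic acid at 40 uM (final) was turned over for 30 min at room temperature by 150 nM human 12hLO, pH 7.0 Hepes buffer, after 15 min compound preincubation.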", "values": [
      {"smiles": "COc1ccc(-c2nc(C#N)c(NCC(C)C)o2)cc1", "activity change, negative = inhibition": "inactive: -3.98%"},
      {"smiles": "O=C(CCc1nc2sc3c(c2c(=O)[nH]1)CCCC3)NCCc1ccccc1", "Potency": "inconclusive: 126 µM [inhibitor, partial curve, poor fit]"},
      {"smiles": "COc1ccc(NC(=O)C(=O)NCC(=O)Nc2cc(OC)ccc2OC)cc1", "Potency": "inconclusive: 63.1 µM [inhibitor, partial curve, poor fit]"},
      {"smiles": "COC(=O)C1=C(C)N(c2ccccc2)C(=S)NC1c1ccccc1C(F)(F)F", "note": "(configuration not stated)", "Potency": "inconclusive: 44.7 µM [inhibitor, partial curve, poor fit]"},
      {"smiles": "Cc1ccc(C(=O)Nc2ccccc2NC(=O)c2ccc(C)o2)o1", "Potency": "inconclusive: 25.1 µM [inhibitor, partial curve, poor fit]"},
      {"smiles": "CC(=NCC1CCCO1)c1c(O)[nH]c(=O)[nH]c1=O", "note": "(configuration not stated)", "activity change, negative = inhibition": "inconclusive: -47.5% [inhibitor]"},
      {"smiles": "O=C(O)c1ccc(COc2ccc3ccccc3c2C=Nc2ccc(N3CCOCC3)cc2)cc1", "Potency": "inconclusive: 31.6 µM [inhibitor, partial curve, poor fit]"},
      {"smiles": "Cc1ccc(C(=O)N2CCN(c3cccc(C)c3C)CC2)o1", "Potency": "inconclusive: 63.1 µM [inhibitor, partial curve, poor fit]"},
      {"smiles": "O=C(Cc1c(O)c2ccccc2oc1=O)c1ccc(F)cc1", "Potency": "inconclusive: 44.7 µM [inhibitor, partial curve]"},
      {"smiles": "Cc1ccccc1CN1CCCN(Cc2nnsc2Cl)CC1", "activity change, negative = inhibition": "inactive: 6.76%"},
      {"smiles": "COCCN1CCC2(CCC1=O)CCN(C(=O)Nc1c(C)cccc1C)CC2", "activity change, negative = inhibition": "inactive: 31.5%"},
      {"smiles": "Cc1ccc(S(=O)(=O)N2CCN(C(=O)c3c(-c4c(F)cccc4Cl)noc3C)CC2)cc1C", "Potency": "inconclusive: 39.8 µM [inhibitor, partial curve, poor fit]"},
      {"smiles": "CN(C)[C@H]1CCN(C(=O)c2ccccc2-n2cncn2)C[C@H]1CCC(=O)O", "Potency": "inconclusive: 44.7 µM [inhibitor, full curve, poor fit]"},
      {"smiles": "CCc1ccc(CNC(=O)CN2C(=O)c3cccnc3Oc3ccc(C)cc32)cc1", "activity change, negative = inhibition": "inconclusive: -36.3% [inhibitor]"},
      {"smiles": "O=C(CCc1cccs1)N1CCSCC1", "Potency": "inconclusive: 2 µM [inhibitor, full curve, poor fit]"},
      {"smiles": "CCCCOc1ccc(CNC(=O)CCCN2C(=O)CSc3c2c(C)nn3-c2ccccc2)cc1", "Potency": "inconclusive: 100 µM [inhibitor, partial curve, poor fit]"},
      {"smiles": "Cc1ccccc1OCCn1cc(C(=O)C2CC2)c2ccccc21", "activity change, negative = inhibition": "inactive: 1.46%"},
      {"smiles": "COc1ccc(-c2ccc(CCC(=O)O)n2-c2ccccc2OC)cc1", "Potency": "inconclusive: 35.5 µM [inhibitor, single point]"},
      {"smiles": "O=S(=O)(Cc1ccc(Cl)cc1)Nc1ccc2c(c1)OCO2", "activity change, negative = inhibition": "inactive: 1.45% [at 57.4 µM]"},
      {"smiles": "COc1ccc2scc(N3CCN(Cc4ccccc4)CC3)c(=O)c2c1", "Potency": "inconclusive: 12.6 µM [inhibitor, partial curve, poor fit]"},
      {"smiles": "COc1ccc2cc(C3=CCCCC3)ncc2c1", "Potency": "inconclusive: 35.5 µM [inhibitor, partial curve, poor fit]"},
      {"smiles": "CCCOc1cc(C)c2c(c1C)C[C@H]([C@H](C)C(=O)NCCN1CCOCC1)CC2", "activity change, negative = inhibition": "inactive: 15% [at 176 µM]"},
      {"smiles": "CCCc1cc(C(=O)Nc2sc(C)c(C)c2C(=O)OCC)no1", "Potency": "inconclusive: 50.1 µM [inhibitor, partial curve, poor fit]"},
      {"smiles": "CC1CN(C(=O)c2cc3cc(Cl)cc(Cl)c3oc2=O)CC(C)O1", "note": "(configuration not stated)", "activity change, negative = inhibition": "inactive: -16.9%"},
      {"smiles": "COc1ccc2[nH]cc(C(C(=O)O)N3CCN(Cc4cccnc4)CC3)c2c1", "note": "(configuration not stated)", "Potency": "inconclusive: 0.224 µM [inhibitor, full curve, poor fit]"},
      {"smiles": "CCOc1ccc2nc(NC(=O)CSCC(=O)Nc3cc(C)on3)sc2c1", "Potency": "inconclusive: 39.8 µM [inhibitor, partial curve]"},
      {"smiles": "Cc1ccc(C(CNc2oc(C(C)(C)C)nc2C#N)N2CCOCC2)cc1", "note": "(configuration not stated)", "activity change, negative = inhibition": "inactive: 19.6%"},
      {"smiles": "O=S1(=O)N[C@@H](Cc2ccccc2)COc2cc(N3CCOCC3)ccc21", "Potency": "inconclusive: 3.16 µM [inhibitor, full curve]"},
      {"smiles": "Cc1ccc(CNC(=O)Cn2cc(C(=O)c3ccc(F)cc3)c(=O)c3ccc(C)nc32)cc1", "Potency": "inconclusive: 126 µM [inhibitor, partial curve, poor fit]"},
      {"smiles": "O=C(CCNS(=O)(=O)c1ccccc1)OCC(=O)c1ccc(F)cc1", "activity change, negative = inhibition": "inactive: -0.642%"},
      {"smiles": "CC(c1ccc(Cl)cc1)n1c(-c2ccc3ccccc3n2)n[nH]c1=S", "note": "(configuration not stated)", "Potency": "inconclusive: 2.51 µM [inhibitor, partial curve, poor fit]"},
      {"smiles": "COC(=O)c1ccc(OCC(O)CN2C(=O)c3ccccc3S2(=O)=O)cc1", "note": "(configuration not stated)", "Potency": "inconclusive: 56.2 µM [inhibitor, partial curve, poor fit]"},
      {"smiles": "COCCN(CCOC)S(=O)(=O)c1ccc(C(=O)Nc2nnc(C3CC3)o2)cc1", "activity change, negative = inhibition": "inactive: -14.2%"},
      {"smiles": "COc1ccc(/C=N\\NC(=O)c2cc(O)c(O)c(O)c2)cc1CN1CCN(c2ccc(F)cc2)CC1", "Potency": "inconclusive: 79.4 µM [inhibitor, partial curve, poor fit]"},
      {"smiles": "COc1ccc(C(=O)NC(=S)Nc2cccc3nc(C)ccc23)cc1OC", "Potency": "inconclusive: 44.7 µM [inhibitor, partial curve, poor fit]"},
      {"smiles": "COCCN1C[C@H]2CN(C(=O)c3ccccc3OC)CCN2C1=O", "activity change, negative = inhibition": "inactive: 4.58% [at 176 µM]"},
      {"smiles": "COc1ccc(C(=O)NNC(=O)Cc2ccc(Cl)cc2)cc1", "activity change, negative = inhibition": "inactive: 0.821%"},
      {"smiles": "Cc1ccc(S(=O)(=O)Nc2ccc(N=Nc3ccc(O)cc3)cc2)cc1", "Potency": "inconclusive: 44.7 µM [inhibitor, partial curve, poor fit]"},
      {"smiles": "O=C(NCC(F)(F)F)c1ccc2sc([C@@H]3O[C@H](CO)[C@H](O)[C@H](O)[C@H]3O)nc2c1", "Potency": "inconclusive: 39.8 µM [inhibitor, partial curve, poor fit]"},
      {"smiles": "O=C(c1ccc(C(F)(F)F)cc1)N1CCCC2(CN[S+](=O)([O-])c3ccccc3N2)C1", "note": "(configuration not stated)", "activity change, negative = inhibition": "inactive: 40.6%"},
      {"smiles": "O=C(Nc1ccc2oc(-c3cccc(Cl)c3)nc2c1)c1ccccc1", "Potency": "inconclusive: 31.6 µM [inhibitor, single point]"},
      {"smiles": "CCC1Nc2ncnc(N3CCN(c4ccccc4)CC3)c2N(Cc2ccc(Br)cc2)C1=O", "note": "(configuration not stated)", "Potency": "inconclusive: 39.8 µM [inhibitor, partial curve]"},
      {"smiles": "CCOc1nc(-c2ccccc2)ccc1-c1noc(COC)n1", "Potency": "inconclusive: 31.6 µM [inhibitor, partial curve, poor fit]"},
      {"smiles": "Cc1cc(N2CCC(C)CC2)nc2ccc(NC(=O)c3ccccc3)cc12", "activity change, negative = inhibition": "inactive: -25.3%"},
      {"smiles": "CC12CCCCN1CCCc1c2[nH]c2ccccc12", "note": "(configuration not stated)", "Potency": "inconclusive: 44.7 µM [inhibitor, partial curve, poor fit]"},
      {"smiles": "CC(NC(=O)Cc1csc2nc(-c3ccc(F)cc3)cn12)c1cccs1", "note": "(configuration not stated)", "Potency": "inconclusive: 35.5 µM [inhibitor, partial curve, poor fit]"},
      {"smiles": "Cn1c(=O)c2c(ncn2CC(O)CO)n(C)c1=O", "note": "(configuration not stated)", "Potency": "inactive"},
      {"smiles": "CCN(CC)c1nc2ccccc2nc1C(=O)Nc1ccc(F)c(F)c1", "activity change, negative = inhibition": "inactive: 3.52%"},
      {"smiles": "O=S1(=O)CCN(Cc2cn(C[C@H]3C[C@@H](NCc4cccnc4)[C@H](O)[C@@H]3O)nn2)CC1", "Potency": "inconclusive: 10 µM [inhibitor, full curve]"},
      {"smiles": "CCC(C)C(NC(=O)NCc1ccc(C)cc1)C(=O)O", "note": "(configuration not stated)", "activity change, negative = inhibition": "inactive: -26.5%"},
      {"smiles": "Cc1cc2c(c(=O)o1)C(c1ccco1)C(C#N)=C(N)O2", "note": "(configuration not stated)", "Potency": "inconclusive: 112 µM [inhibitor, single point]"},
      {"smiles": "COc1ccccc1CCn1cnc(-c2ccccc2F)c1CC(C)C", "Potency": "inconclusive: 70.8 µM [inhibitor, partial curve, poor fit]"},
      {"smiles": "CCOC(=O)c1cnc(SC2CCc3ccccc3C2=O)nc1N", "note": "(configuration not stated)", "Potency": "inconclusive: 44.7 µM [inhibitor, partial curve, poor fit]"},
      {"smiles": "O=C(O)C1CSC(c2ccc3c(c2)OCO3)N1", "note": "(configuration not stated)", "Potency": "inconclusive: 31.6 µM [inhibitor, partial curve, poor fit]"},
      {"smiles": "CCc1nc(SCC(=O)Nc2ccccc2OC)c2c(C)c(C)sc2n1", "Potency": "inconclusive: 126 µM [inhibitor, partial curve, poor fit]"},
      {"smiles": "CC1(C)CC(C#N)(N2CCOCC2)CCO1", "note": "(configuration not stated)", "Potency": "inconclusive: 35.5 µM [inhibitor, single point]"},
      {"smiles": "N#CCCN(CCC#N)c1ccncc1", "activity change, negative = inhibition": "inactive: -19.1%"},
      {"smiles": "Oc1ccc(N2CCN(CC(O)c3ccccc3)CC2)cc1", "note": "(configuration not stated)", "Potency": "inconclusive: 31.6 µM [inhibitor, single point]"},
      {"smiles": "O=C(CSC1CCCCC1)N1CCN(c2ccccc2)CC1", "Potency": "inconclusive: 1.41 µM [inhibitor, full curve, poor fit]"},
      {"smiles": "O=c1c(-c2n[nH]c(=S)n2-c2ccccc2)cccn1Cc1cccc(Cl)c1", "activity change, negative = inhibition": "inactive: -5.92%"},
      {"smiles": "Cc1ccc(-c2n[nH]c(=S)n2/N=C/c2cc3c(cc2[N+](=O)[O-])OCO3)cc1", "Potency": "inconclusive: 56.2 µM [inhibitor, partial curve, poor fit]"},
      {"smiles": "Fc1ccc(/C=N/Nc2c(Cl)cc(Cl)cc2Cl)cc1F", "Potency": "inconclusive: 44.7 µM [inhibitor, partial curve]"},
      {"smiles": "O=C(O)c1ccccc1SCc1ccccc1Cl", "activity change, negative = inhibition": "inactive: -21%"},
      {"smiles": "Cc1cccc(CC2SC(N)=NC2=O)c1", "note": "(configuration not stated)", "Potency": "inconclusive: 35.5 µM [inhibitor, partial curve]"},
      {"smiles": "C[C@H](O)[C@@H]1CN2CCc3c([nH]c4ccccc34)[C@@H]2C[C@@H]1N(C)Cc1cc(Cl)cc(Cl)c1", "Potency": "inconclusive: 126 µM [inhibitor, single point]"},
      {"smiles": "CCOC(=O)c1c(NC(=O)C2=C(C)NC(=S)NC2c2ccc(F)cc2F)sc(C)c1C", "note": "(configuration not stated)", "Potency": "active: 39.8 µM"},
      {"smiles": "CC[C@H]1CN(S(=O)(=O)c2ccccc2)CC[C@H]1CC(=O)NCCOC", "activity change, negative = inhibition": "inactive: -8.59% [at 176 µM]"}
    ]}
  ]
}
